The numbers were not newly measured in PMC12640937, “Integrating drug effects on individual cardiac ionic currents and cardiac action potentials to understand nonclinical translation to clinical ECG changes” (Frontiers in Pharmacology, 2025), which cites them from elsewhere.

For series [1] the following is noted: calculated with MW and protein binding; ref Johannesen et al., 2016; cited from earlier work.
Another series concerns INaL (NaV1.5 channels). Conditions: read-out: INaL IC50; prior study; veratridine; 36 °C; ref Crumb et al., 2016; cited from earlier work.

In the case of `CCN(CC)CC(=O)Nc1c(C)cccc1C` [lidocaine], in series [1], the “free clinical Cmax” value is 2900 nM. The IC50 in the series on INaL (NaV1.5 channels) is 10.8 µM.

For orientation: IC50 means the concentration that gives 50% inhibition.
